Results are given in words; binding and its absence hold for the method and conditions named. Some binding calls cover weakened binding; strength is not graded here.
Molecular target: proteasome core particle (S. cerevisiae (endogenous in yeast)) (UniProt P21243)
Test: native gel or EMSA; whole-cell yeast lysates by cryo-grinding (50 mM Tris-HCl pH 7.5, 5 mM MgCl2, 1 mM ATP, 1 mM EDTA), 300 ug on a 3.5% acrylamide native gel, 96 V, 2.5 h, 4 °C; fluorescence scan (GFP, Venus) and in-gel LLVY-AMC activity; cells in log phase, after prolonged growth in YPD, 37 °C, nitrogen or glucose starvation, MG132, atg7Δ, rpn4Δ

The chains behind the UniProt entries cited, without tags or fusion partners. Where a name states a change or a piece, a line headed by the entry shows the natural chain unless it says otherwise.
UniProt P21243: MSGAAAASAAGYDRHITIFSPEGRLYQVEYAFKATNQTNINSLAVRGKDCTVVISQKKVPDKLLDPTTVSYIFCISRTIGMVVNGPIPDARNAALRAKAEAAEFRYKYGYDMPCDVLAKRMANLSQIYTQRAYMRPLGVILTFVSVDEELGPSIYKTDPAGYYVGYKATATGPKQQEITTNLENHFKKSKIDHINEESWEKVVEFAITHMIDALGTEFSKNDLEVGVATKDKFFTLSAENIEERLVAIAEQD
UniProt P38737: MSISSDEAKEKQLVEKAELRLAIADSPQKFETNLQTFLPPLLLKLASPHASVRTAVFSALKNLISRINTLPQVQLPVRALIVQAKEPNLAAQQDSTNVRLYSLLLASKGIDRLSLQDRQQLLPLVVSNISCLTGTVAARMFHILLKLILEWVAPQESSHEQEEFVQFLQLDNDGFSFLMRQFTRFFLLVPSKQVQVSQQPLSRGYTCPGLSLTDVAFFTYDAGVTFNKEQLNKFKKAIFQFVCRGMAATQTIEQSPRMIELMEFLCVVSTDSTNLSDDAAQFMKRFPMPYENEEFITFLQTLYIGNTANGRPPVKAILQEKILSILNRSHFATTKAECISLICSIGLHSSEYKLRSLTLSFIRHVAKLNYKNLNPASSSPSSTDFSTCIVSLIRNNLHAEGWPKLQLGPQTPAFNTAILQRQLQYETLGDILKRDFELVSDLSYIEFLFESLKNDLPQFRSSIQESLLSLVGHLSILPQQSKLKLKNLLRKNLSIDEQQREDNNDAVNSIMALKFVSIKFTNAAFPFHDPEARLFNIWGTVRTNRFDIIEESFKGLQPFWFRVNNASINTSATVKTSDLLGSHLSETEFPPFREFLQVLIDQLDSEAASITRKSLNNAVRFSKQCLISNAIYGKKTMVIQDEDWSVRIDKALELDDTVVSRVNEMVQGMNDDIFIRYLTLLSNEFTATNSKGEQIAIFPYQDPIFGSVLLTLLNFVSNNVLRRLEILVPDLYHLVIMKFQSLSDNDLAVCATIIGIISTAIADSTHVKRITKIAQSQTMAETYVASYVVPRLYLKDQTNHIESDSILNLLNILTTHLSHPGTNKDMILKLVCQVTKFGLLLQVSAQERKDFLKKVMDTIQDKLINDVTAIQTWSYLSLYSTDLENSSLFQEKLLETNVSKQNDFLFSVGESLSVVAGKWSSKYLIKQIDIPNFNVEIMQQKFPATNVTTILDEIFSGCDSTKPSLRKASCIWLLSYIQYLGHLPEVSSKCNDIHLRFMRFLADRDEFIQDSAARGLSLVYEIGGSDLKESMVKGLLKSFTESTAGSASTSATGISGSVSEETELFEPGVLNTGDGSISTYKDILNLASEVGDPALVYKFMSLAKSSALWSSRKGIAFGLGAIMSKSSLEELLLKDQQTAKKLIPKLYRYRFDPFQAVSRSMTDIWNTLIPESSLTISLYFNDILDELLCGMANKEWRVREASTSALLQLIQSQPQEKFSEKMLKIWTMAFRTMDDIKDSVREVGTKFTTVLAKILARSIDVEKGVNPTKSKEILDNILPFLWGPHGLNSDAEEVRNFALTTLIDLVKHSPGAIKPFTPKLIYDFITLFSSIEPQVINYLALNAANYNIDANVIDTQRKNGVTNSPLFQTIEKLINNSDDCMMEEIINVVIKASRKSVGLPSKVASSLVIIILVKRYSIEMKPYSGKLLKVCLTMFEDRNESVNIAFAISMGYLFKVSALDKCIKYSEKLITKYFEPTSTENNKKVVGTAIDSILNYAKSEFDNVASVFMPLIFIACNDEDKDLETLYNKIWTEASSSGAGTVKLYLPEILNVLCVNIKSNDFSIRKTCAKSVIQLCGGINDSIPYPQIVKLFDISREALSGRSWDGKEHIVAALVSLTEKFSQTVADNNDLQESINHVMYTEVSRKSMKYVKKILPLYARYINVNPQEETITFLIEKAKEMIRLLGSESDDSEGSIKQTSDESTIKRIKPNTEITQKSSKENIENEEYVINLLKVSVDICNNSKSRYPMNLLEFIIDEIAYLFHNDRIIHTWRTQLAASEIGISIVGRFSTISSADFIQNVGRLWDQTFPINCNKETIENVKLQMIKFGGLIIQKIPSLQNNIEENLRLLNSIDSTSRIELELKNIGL

- binding: binds
Substance: Ecm29 (from UniProt P38737 1-1868)

Source: paper PMC8039559
